This is one part of the list. Shown are side measurements of this screen, not its main read-out; they come without a call. Most of these compounds were active or inconclusive in the main read-out, so they are no random draw. Potencies come from curve fits of mixed quality, noted in brackets.
Test: qHTS Assay for Lipid Storage Modulators in Drosophila S3 Cells;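 as to cell number change: cells counted by Cell Tracker Red CMTPX staining in the red channel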
Conditions: BODIPY lipid droplet fluorescence, 18-24 h; for cell number change: measured here: cell count max response, cells fed with added oleic acid
Summary of the method: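 Laser-scanning cytometry quantifies lipid droplet accumulation (500–530 nm total intensity; droplet/cell object ratio) in oleic acid-fed (400 uM added) Drosophila S3 cells treated with a concentration series. 20 uM Triacsin C defined 100% inhibition.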

[1] = measured here: lipid fluorescence (Fed channel) AC50, cells fed with added oleic acid
[2] = measured here: cell number channel AC50, cells fed with added oleic acid

Compound | cell number change [%] | AC50 [1] | AC50 [2]
COC(=O)[C@H](Cc1ccccc1)NC(=O)NCCc1ccccc1F | 22.7 |  | 
CCC1=NC(c2ccccc2Cl)N(O)C1(C)C (centres undefined) | 3.97 | 25.9 µM [falling, single point] | 
CCN(CC)CCCNc1oc(-c2cccc(Cl)c2)nc1C#N | 31.7 |  | 23.1 µM [rising, single point]
Cc1cc(Br)c(S(=O)(=O)n2nnc3ccccc32)cc1C | -63.3 | 29.1 µM [falling, single point] | 29.1 µM [falling, single point]
CCN(CC)S(=O)(=O)c1cccc(C(=O)OCc2cc(=O)n3nc(C)sc3n2)c1 | -2.06 | 2.91 µM [falling, full curve, poor fit] | 
N#CCSc1nc2ccccc2c2nc3ccccc3n12 |  |  | 6.51 µM [rising, single point]
CCn1cc(Br)c(C(=O)Nc2sc3c(c2C(N)=O)CCCC3)n1 |  | 6.51 µM [falling, single point] | 
COc1cccc(NC(=O)COC(=O)Cc2ccc(Cl)cc2)c1 |  | 0.651 µM [falling, partial curve, poor fit] | 
CC1CCCN(C(=O)CN2C(=O)CSc3ccc(S(=O)(=O)N4CCOCC4)cc32)C1 (centres undefined) | -2.47 | 6.51 µM [falling, single point] | 
COc1ccc(C2(C)NC(=O)N(CC(=O)Nc3ccc4c(c3)CCC4)C2=O)cc1OC (centres undefined) | 25.9 | 29.1 µM [rising, partial curve, poor fit] | 
CCn1cc(S(=O)(=O)c2ccc(C)cc2)[nH]c1=O | -31.6 |  | 29.1 µM [falling, single point]
COc1ccc(CCNC(=O)COc2cccc(-n3cnnn3)c2)cc1 | 3.85 |  | 
COc1ccc(-c2oc3ncn4nc(Cc5ccccc5)nc4c3c2-c2ccc(OC)cc2)cc1 | 3.78 | 1.46 µM [rising, partial curve] | 
CCN1CCN(c2ccc(S(=O)(=O)N3CCCCC3)cc2NC(=O)/C=C/c2ccc(OC)c(OC)c2)CC1 |  | 0.184 µM [rising, full curve, poor fit] | 
Cc1ccnc(-n2c(C)cc(/C=N/NC(=O)COc3cccc4cccnc34)c2C)c1 |  | 0.731 µM [rising, partial curve, poor fit] | 0.411 µM [rising, full curve]
COc1cc(/C=C(\C#N)c2nc3ccccc3[nH]2)cc(Br)c1OCc1ccccc1 | -6.01 | 1.3 µM [rising, partial curve] | 
Cc1ccc(CNC(=O)CN2c3cccc4cccc(c34)S2(=O)=O)cc1 | -15.3 | 7.31 µM [falling, partial curve] | 

3 entries out of the list, arranged by length of the SMILES, smallest number first:
Compound | cell number change [%] | AC50 [1] | AC50 [2]
N#CCSc1nc2ccccc2c2nc3ccccc3n12 |  |  | 6.51 µM [rising, single point]
COc1cccc(NC(=O)COC(=O)Cc2ccc(Cl)cc2)c1 |  | 0.651 µM [falling, partial curve, poor fit] | 
CCn1cc(Br)c(C(=O)Nc2sc3c(c2C(N)=O)CCCC3)n1 |  | 6.51 µM [falling, single point] | 
